Reference: the supplement of paper PMC10849652
The list shows a part of the results.

Amino acid sequences for entries named in this document (tags omitted). A change or cut given only in a name is not applied to a line headed by its entry.
UniProt O75122: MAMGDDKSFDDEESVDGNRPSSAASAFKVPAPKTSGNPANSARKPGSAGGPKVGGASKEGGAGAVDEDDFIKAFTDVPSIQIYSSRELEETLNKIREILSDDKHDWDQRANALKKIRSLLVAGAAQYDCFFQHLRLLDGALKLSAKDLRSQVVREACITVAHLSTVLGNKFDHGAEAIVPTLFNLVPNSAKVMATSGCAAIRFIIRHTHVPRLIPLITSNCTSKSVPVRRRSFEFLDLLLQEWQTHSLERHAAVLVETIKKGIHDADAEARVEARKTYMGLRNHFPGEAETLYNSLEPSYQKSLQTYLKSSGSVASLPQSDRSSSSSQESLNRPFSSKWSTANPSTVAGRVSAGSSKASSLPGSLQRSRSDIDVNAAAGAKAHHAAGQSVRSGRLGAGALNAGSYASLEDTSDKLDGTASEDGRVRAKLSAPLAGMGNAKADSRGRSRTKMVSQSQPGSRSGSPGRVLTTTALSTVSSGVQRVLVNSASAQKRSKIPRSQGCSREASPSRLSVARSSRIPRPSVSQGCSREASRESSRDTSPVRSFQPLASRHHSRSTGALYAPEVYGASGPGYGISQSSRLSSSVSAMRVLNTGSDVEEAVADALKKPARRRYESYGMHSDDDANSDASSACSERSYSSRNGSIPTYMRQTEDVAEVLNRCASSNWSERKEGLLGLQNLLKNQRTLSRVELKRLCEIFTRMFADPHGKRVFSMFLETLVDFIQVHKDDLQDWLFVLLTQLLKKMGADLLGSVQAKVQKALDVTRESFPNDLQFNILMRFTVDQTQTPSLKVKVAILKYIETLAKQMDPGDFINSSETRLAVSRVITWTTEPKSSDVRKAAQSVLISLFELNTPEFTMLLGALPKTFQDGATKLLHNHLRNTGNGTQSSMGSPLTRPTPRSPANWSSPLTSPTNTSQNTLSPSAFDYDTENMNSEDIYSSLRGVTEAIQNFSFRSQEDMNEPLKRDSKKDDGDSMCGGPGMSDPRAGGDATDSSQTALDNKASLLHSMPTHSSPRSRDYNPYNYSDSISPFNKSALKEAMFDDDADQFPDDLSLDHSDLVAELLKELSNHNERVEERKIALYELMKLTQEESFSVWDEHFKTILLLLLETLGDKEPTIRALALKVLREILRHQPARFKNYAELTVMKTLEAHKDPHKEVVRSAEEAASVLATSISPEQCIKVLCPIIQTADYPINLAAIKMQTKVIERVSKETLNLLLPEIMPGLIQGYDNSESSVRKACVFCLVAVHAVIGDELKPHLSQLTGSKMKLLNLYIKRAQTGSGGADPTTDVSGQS
UniProt O14578, whole entry, looked up: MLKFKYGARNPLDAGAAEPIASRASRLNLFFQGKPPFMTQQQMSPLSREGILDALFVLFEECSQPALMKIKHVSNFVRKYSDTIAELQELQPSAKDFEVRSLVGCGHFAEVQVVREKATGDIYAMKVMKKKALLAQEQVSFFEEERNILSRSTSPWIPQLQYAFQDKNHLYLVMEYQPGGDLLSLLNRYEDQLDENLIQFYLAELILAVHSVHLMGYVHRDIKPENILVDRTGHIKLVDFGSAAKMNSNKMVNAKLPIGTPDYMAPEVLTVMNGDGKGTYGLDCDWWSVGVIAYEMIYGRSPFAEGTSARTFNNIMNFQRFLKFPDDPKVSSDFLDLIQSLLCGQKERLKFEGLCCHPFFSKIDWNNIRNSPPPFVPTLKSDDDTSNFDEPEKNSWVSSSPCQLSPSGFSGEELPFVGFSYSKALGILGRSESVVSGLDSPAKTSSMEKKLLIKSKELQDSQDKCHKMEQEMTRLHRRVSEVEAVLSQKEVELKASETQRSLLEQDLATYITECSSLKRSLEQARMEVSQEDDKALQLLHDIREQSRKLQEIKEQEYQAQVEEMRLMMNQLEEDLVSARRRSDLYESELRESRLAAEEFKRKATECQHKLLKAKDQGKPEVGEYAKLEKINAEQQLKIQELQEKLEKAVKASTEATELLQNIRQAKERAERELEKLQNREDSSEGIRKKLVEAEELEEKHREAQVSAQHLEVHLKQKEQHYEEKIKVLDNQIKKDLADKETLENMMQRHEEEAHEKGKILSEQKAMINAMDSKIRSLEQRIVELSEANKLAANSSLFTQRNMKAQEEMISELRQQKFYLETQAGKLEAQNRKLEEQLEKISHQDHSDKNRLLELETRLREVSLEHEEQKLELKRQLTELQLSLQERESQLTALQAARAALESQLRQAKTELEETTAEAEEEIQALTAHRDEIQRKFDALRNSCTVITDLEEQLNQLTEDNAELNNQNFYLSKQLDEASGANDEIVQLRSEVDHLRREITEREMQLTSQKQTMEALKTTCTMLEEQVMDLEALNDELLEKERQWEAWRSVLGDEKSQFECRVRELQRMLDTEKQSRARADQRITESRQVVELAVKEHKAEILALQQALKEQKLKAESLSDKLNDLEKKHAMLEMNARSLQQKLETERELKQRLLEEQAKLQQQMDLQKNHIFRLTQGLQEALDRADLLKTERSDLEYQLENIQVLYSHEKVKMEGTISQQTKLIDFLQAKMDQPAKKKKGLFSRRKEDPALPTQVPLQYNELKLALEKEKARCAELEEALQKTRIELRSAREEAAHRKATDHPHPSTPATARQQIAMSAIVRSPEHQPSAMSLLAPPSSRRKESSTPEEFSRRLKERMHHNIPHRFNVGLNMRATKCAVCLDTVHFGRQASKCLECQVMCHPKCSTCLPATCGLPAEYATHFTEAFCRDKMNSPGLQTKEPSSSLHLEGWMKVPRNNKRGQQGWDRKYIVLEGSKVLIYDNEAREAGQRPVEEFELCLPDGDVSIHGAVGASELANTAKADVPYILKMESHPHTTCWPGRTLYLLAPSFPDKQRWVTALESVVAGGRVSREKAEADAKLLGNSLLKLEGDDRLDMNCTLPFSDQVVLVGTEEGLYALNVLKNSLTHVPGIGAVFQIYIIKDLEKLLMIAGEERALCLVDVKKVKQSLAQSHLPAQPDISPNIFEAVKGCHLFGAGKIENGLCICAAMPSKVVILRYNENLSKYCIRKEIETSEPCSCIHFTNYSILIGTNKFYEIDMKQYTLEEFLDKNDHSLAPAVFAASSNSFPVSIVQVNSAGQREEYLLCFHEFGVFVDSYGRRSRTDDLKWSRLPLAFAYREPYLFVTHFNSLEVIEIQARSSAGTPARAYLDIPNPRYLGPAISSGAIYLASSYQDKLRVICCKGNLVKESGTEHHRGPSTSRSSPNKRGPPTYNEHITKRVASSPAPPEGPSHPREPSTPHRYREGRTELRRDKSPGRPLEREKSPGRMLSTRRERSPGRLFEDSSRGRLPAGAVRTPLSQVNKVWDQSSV
UniProt Q99653: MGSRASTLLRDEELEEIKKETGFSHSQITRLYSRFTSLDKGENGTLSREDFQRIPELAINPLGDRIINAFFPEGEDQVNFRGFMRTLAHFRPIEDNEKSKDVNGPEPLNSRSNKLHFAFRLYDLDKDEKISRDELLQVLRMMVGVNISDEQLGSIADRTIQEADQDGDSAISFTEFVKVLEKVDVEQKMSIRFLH
UniProt Q05707: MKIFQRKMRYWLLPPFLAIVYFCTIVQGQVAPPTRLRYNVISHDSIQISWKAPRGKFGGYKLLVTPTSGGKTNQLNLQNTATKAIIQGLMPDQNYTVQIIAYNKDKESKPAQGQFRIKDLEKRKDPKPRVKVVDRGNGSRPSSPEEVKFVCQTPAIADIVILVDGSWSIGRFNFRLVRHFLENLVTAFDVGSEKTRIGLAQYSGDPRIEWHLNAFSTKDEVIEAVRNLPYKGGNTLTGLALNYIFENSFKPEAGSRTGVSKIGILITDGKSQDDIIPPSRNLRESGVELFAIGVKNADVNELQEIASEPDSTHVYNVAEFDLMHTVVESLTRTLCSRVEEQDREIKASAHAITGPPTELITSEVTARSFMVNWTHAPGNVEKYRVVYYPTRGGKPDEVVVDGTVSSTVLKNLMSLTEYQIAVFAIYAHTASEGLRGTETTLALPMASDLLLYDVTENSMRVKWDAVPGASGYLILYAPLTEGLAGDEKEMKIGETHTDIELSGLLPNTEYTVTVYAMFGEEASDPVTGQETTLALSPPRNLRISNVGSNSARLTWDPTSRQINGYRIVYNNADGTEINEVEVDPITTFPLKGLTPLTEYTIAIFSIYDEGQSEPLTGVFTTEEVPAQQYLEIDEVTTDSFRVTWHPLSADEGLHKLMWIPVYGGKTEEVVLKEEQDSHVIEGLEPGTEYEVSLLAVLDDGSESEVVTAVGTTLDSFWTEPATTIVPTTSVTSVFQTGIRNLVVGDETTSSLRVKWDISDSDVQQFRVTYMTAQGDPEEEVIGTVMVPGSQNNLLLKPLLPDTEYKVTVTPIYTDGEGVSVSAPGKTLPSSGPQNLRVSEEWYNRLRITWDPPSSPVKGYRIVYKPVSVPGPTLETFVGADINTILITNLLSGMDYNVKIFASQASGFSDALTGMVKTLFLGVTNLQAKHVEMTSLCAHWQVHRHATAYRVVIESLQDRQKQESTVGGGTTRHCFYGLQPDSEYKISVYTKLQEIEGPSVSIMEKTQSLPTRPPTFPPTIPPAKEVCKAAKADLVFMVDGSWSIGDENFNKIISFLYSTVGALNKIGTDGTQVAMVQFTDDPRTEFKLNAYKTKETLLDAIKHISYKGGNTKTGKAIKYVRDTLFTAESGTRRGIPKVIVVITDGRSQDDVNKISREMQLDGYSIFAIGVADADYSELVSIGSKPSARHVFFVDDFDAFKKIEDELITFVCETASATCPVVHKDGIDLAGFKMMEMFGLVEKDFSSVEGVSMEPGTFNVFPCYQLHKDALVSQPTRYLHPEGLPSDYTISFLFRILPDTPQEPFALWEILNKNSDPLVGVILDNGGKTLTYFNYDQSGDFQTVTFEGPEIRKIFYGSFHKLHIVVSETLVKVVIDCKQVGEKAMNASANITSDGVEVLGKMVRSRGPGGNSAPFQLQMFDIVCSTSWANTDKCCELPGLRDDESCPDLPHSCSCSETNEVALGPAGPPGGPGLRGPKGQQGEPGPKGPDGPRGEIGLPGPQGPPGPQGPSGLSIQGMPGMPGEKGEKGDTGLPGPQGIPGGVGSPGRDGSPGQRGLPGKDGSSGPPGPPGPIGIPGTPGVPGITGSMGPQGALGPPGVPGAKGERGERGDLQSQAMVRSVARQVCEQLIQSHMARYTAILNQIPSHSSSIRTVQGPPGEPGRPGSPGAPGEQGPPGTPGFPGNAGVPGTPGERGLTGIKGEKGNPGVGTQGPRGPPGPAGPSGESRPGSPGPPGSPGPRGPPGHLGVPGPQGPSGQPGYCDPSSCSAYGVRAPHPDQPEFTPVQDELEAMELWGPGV
UniProt Q13057: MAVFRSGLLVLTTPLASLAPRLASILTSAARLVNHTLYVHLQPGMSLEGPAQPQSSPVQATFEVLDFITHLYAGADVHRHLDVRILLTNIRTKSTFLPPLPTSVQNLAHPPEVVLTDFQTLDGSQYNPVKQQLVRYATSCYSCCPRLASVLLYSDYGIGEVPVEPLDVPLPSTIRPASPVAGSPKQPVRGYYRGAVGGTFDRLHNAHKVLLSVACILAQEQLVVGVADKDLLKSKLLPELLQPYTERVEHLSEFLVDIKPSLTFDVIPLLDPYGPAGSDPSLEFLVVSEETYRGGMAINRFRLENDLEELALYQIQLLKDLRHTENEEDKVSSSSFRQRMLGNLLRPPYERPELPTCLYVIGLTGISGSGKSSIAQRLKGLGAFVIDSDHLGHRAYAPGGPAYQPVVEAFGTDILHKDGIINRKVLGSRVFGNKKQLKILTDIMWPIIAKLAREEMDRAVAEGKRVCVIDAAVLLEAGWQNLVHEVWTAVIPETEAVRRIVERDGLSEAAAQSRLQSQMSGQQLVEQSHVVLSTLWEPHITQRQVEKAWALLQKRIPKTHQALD
UniProt P09497: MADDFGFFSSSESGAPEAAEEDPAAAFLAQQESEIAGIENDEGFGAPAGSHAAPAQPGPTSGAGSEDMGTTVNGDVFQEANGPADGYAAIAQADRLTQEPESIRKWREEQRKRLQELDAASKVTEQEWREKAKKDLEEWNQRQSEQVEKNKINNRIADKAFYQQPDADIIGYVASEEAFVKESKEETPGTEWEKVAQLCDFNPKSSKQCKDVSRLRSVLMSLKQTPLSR
UniProt Q86X95: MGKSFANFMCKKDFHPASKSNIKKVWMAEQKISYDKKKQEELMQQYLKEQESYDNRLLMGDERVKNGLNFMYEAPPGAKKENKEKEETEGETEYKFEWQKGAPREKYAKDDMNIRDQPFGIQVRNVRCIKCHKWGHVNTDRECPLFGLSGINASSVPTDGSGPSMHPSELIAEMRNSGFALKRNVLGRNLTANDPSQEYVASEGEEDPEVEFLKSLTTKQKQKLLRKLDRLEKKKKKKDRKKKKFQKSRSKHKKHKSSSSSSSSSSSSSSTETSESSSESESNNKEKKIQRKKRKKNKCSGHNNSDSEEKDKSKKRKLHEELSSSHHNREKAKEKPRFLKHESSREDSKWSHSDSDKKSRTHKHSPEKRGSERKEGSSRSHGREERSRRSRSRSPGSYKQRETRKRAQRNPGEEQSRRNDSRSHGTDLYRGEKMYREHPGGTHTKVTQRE

Tests used:
Assay in all cases: log2 fold change, soluble protein after heating vs DMSO (PISA); higher = thermal stabilisation; K562 cells, 10 uM, 30 min; active = over 0.2 and 3.5 SD of the protein, either way, in both replicates (recomputed)
saracatinib = compound: CN1CCN(CCOc2cc(OC3CCOCC3)c3c(Nc4c(Cl)ccc5c4OCO5)ncnc3c2)CC1 [saracatinib]
Method in brief: (§1)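 Aliquots of K562 cells (2×10^6 cells/mL) treated with 10 μM compound for 30 min were heated for 3 min over 48°C-58°C. After pooling and extraction in PBS with 0.5% NP-40 at 4°C, soluble protein from a 21,000xg, 90 min spin was quantified by TMTpro 16plex LC-MS/MS with channel sums equalised. Thermal stability is expressed against control samples, from duplicates, as a log2 fold change.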

sotrastaurin = compound: CN1CCN(c2nc(C3=C(c4c[nH]c5ccccc45)C(=O)NC3=O)c3ccccc3n2)CC1 [sotrastaurin]
Method in brief: as §1

Tubastatin A = compound: CN1CCc2c(c3ccccc3n2Cc2ccc(C(=O)NO)cc2)C1 [Tubastatin A]
Method in brief: as §1

[1] = compound: CNC(=O)C1=CC=CC=C1NC2=NC(=NC=C2Cl)NC3=C(C=C(C=C3)N4CCOCC4)OC
Method in brief: as §1

defactinib = compound: CNC(=O)c1ccc(Nc2ncc(C(F)(F)F)c(NCc3nccnc3N(C)S(C)(=O)=O)n2)cc1 [defactinib]
Method in brief: as §1

rucaparib = compound: CNCc1ccc(-c2[nH]c3cc(F)cc4c3c2CCNC4=O)cc1 [rucaparib]
Method in brief: as §1

[2] = compound: CNc1nc(-c2ccc3c(N)n[nH]c3c2)cc(N2C[C@@H](C(=O)NC3CCCCC3)CC[C@H]2C)n1
Method in brief: as §1

encorafenib = compound: COC(=O)N[C@@H](C)CNc1nccc(-c2cn(C(C)C)nc2-c2cc(Cl)cc(NS(C)(=O)=O)c2F)n1 [encorafenib]
Method in brief: as §1

[3] = compound: COC(=O)[C@H](CCSC)NC(=O)C1=C(C=C(C=C1)NC[C@H](CS)N)C2=CC=CC=C2
Method in brief: as §1

alvocidib = compound: CN1CC[C@H](c2c(O)cc(O)c3c(=O)cc(-c4ccccc4Cl)oc23)[C@H](O)C1 [alvocidib]
Method in brief: as §1

Measured: log2 fold change

COA6 isoform 2 (UniProt Q5JTJ3)
inactive: saracatinib 0.175 | sotrastaurin 0.063 | Tubastatin A 0.07 | [1] 0.354 | defactinib -0.022 | rucaparib -0.068 | [2] 0.138 | encorafenib -0.055 | [3] 0.072

CLASP1 (UniProt Q7Z460)
inactive: saracatinib -0.142 | sotrastaurin -0.246 | alvocidib -0.12 | Tubastatin A 0.034 | [1] -0.067 | defactinib -0.114 | rucaparib 0.176 | [2] 0.034 | encorafenib 0.141 | [3] -0.099

CNTRL (UniProt Q7Z7A1)
inactive: saracatinib -0.128 | sotrastaurin -0.008 | alvocidib -0.023 | Tubastatin A 0.07 | defactinib 0.002 | rucaparib -0.107 | [2] -0.17 | encorafenib 0.136 | [3] 0.009

CLASP2 isoform 3 (UniProt O75122)
inactive: saracatinib -0.073 | sotrastaurin -0.232 | Tubastatin A 0.016 | [1] -0.041 | defactinib -0.1 | rucaparib 0.015 | [2] 0.035 | encorafenib 0.084 | [3] -0.043

CNDP2 (UniProt Q96KP4)
active: Tubastatin A -0.226
inactive: saracatinib -0.016 | sotrastaurin -0.003 | [1] -0.014 | defactinib -0.006 | rucaparib -0.041 | [2] 0.028 | encorafenib 0.001 | [3] 0.124

CLSTN1 (UniProt O94985)
inactive: saracatinib -0.333 | sotrastaurin 0.31 | alvocidib -0.041 | Tubastatin A -0.122 | rucaparib -0.199 | [2] -0.222 | encorafenib -0.179

CLN8 (UniProt Q9UBY8)
inactive: saracatinib 0.073 | sotrastaurin 0.107 | Tubastatin A -0.225 | [1] 0.022 | defactinib -0.062 | rucaparib -0.061 | [2] -0.292 | encorafenib -0.117 | [3] 0.05

CNOT1 (UniProt A5YKK6)
inactive: saracatinib -0.025 | sotrastaurin -0.087 | Tubastatin A -0.003 | [1] 0.03 | defactinib -0.057 | rucaparib 0.077 | [2] 0.024 | encorafenib 0.074 | [3] -0.031

CIRBP (UniProt Q14011)
inactive: saracatinib -0.104 | alvocidib 0.164 | Tubastatin A 0.042 | defactinib 0.034 | rucaparib 0.308 | [2] 0.078 | encorafenib 0.042 | [3] 0.201

CIP2A (UniProt Q8TCG1)
inactive: saracatinib -0.443 | sotrastaurin 0.733 | [2] -0.409

CLSPN (UniProt Q9HAW4)
inactive: saracatinib 0.076 | sotrastaurin 0.002 | Tubastatin A 0.039 | [1] 0.053 | defactinib -0.183 | rucaparib -0.11 | [2] -0.102 | encorafenib 0.031 | [3] 0.047

CIT isoform 4 (UniProt O14578)
inactive: saracatinib -0.044 | sotrastaurin -0.033 | Tubastatin A 0.074 | [1] 0.054 | defactinib -0.034 | rucaparib -0.202 | [2] -0.055 | encorafenib -0.025 | [3] -0.001

CHP1 (UniProt Q99653)
inactive: saracatinib -0.09 | sotrastaurin 0.068 | Tubastatin A 0.041 | [1] 0.085 | defactinib -0.006 | rucaparib 0.068 | [2] -0.219 | encorafenib -0.016 | [3] 0.021

COG3 (UniProt Q96JB2)
inactive: saracatinib -0.144 | alvocidib 0.101 | [1] 0.301 | defactinib 0.154 | rucaparib 0.256 | [2] 0.062 | encorafenib 0.034 | [3] -0.179

CNOT2 (UniProt Q9NZN8)
inactive: saracatinib -0.044 | sotrastaurin 0.007 | Tubastatin A -0.005 | [1] -0.006 | defactinib -0.024 | rucaparib 0.052 | [2] 0 | encorafenib 0.012 | [3] -0.021

COL14A1 (UniProt Q05707)
inactive: saracatinib 0.017 | sotrastaurin 0.127 | Tubastatin A 0.013 | defactinib -0.068 | rucaparib 0.061 | [2] -0.174 | encorafenib -0.107 | [3] -0.016

CLUH (UniProt O75153)
inactive: saracatinib -0.032 | sotrastaurin -0.141 | Tubastatin A 0.033 | [1] -0.049 | defactinib -0.04 | rucaparib 0.239 | [2] 0.133 | encorafenib -0.044 | [3] -0.046

COASY isoform 2 (UniProt Q13057)
inactive: saracatinib 0.003 | sotrastaurin -0.001 | Tubastatin A -0.001 | [1] 0.035 | defactinib -0.065 | rucaparib 0.011 | [2] -0.03 | encorafenib 0.034 | [3] -0.029

CLCN7 (UniProt P51798)
inactive: saracatinib 0.004 | sotrastaurin -0.112 | Tubastatin A -0.071 | [1] 0.044 | defactinib 0.025 | rucaparib -0.052 | [2] -0.156 | encorafenib 0.151 | [3] -0.04

CLUH, A0A494C0R8
inactive: saracatinib -0.037 | sotrastaurin -0.058 | Tubastatin A -0.088 | [1] 0.09 | defactinib -0.068 | rucaparib 0.16 | [2] 0.138 | encorafenib 0.032 | [3] 0.102

CLIC6 (UniProt Q96NY7)
inactive: saracatinib -0.039 | sotrastaurin 0.077 | Tubastatin A -0.01 | defactinib 0.012 | rucaparib -0.133 | [2] -0.284 | encorafenib -0.007 | [3] 0.105

CHPT1 (UniProt Q8WUD6)
inactive: saracatinib -0.066 | sotrastaurin -0.016 | Tubastatin A -0.08 | rucaparib -0.069 | [2] 0.034 | encorafenib 0.103

Taken from the results shown (8 entries):
CIT isoform 4 (UniProt O14578)
inactive: saracatinib -0.044 | sotrastaurin -0.033 | Tubastatin A 0.074 | [1] 0.054 | defactinib -0.034 | rucaparib -0.202 | [2] -0.055 | encorafenib -0.025 | [3] -0.001

CHP1 (UniProt Q99653)
inactive: saracatinib -0.09 | sotrastaurin 0.068 | Tubastatin A 0.041 | [1] 0.085 | defactinib -0.006 | rucaparib 0.068 | [2] -0.219 | encorafenib -0.016 | [3] 0.021

COG3 (UniProt Q96JB2)
inactive: saracatinib -0.144 | alvocidib 0.101 | [1] 0.301 | defactinib 0.154 | rucaparib 0.256 | [2] 0.062 | encorafenib 0.034 | [3] -0.179

CNOT2 (UniProt Q9NZN8)
inactive: saracatinib -0.044 | sotrastaurin 0.007 | Tubastatin A -0.005 | [1] -0.006 | defactinib -0.024 | rucaparib 0.052 | [2] 0 | encorafenib 0.012 | [3] -0.021

COL14A1 (UniProt Q05707)
inactive: saracatinib 0.017 | sotrastaurin 0.127 | Tubastatin A 0.013 | defactinib -0.068 | rucaparib 0.061 | [2] -0.174 | encorafenib -0.107 | [3] -0.016

CLUH (UniProt O75153)
inactive: saracatinib -0.032 | sotrastaurin -0.141 | Tubastatin A 0.033 | [1] -0.049 | defactinib -0.04 | rucaparib 0.239 | [2] 0.133 | encorafenib -0.044 | [3] -0.046

COASY isoform 2 (UniProt Q13057)
inactive: saracatinib 0.003 | sotrastaurin -0.001 | Tubastatin A -0.001 | [1] 0.035 | defactinib -0.065 | rucaparib 0.011 | [2] -0.03 | encorafenib 0.034 | [3] -0.029

CLCN7 (UniProt P51798)
inactive: saracatinib 0.004 | sotrastaurin -0.112 | Tubastatin A -0.071 | [1] 0.044 | defactinib 0.025 | rucaparib -0.052 | [2] -0.156 | encorafenib 0.151 | [3] -0.04

(listing goes on)

CLPP (UniProt Q16740)
inactive: saracatinib 0 | sotrastaurin 0.009 | Tubastatin A 0.067 | [1] 0.054 | defactinib -0.017 | rucaparib 0.026 | [2] -0.028 | encorafenib -0.077 | [3] -0.038

CLTB (UniProt P09497)
inactive: saracatinib 0.064 | sotrastaurin 0.017 | Tubastatin A -0.019 | [1] -0.034 | defactinib 0.063 | rucaparib -0.039 | [2] -0.009 | encorafenib -0.014 | [3] 0.031

CNTN4 (UniProt Q8IWV2)
inactive: saracatinib -0.026 | sotrastaurin -0.033 | Tubastatin A 0.256 | [1] -0.225 | defactinib -0.06 | rucaparib -0.01 | [2] -0.016 | encorafenib -0.082 | [3] 0.004

COG6 (UniProt Q9Y2V7)
inactive: saracatinib -0.292 | alvocidib -0.031 | Tubastatin A 0.083 | [1] 0.062 | defactinib 0.082 | [2] 0.009 | [3] -0.356

CKS1B (UniProt P61024)
inactive: saracatinib 0.06 | sotrastaurin 0.059 | Tubastatin A -0.045 | [1] -0.01 | defactinib -0.054 | rucaparib -0.047 | [2] -0.057 | encorafenib 0.01 | [3] -0.1

CHUK (UniProt O15111)
inactive: saracatinib -0.144 | alvocidib 0.241 | Tubastatin A 0.171 | defactinib 0.175 | [2] 0.123 | [3] -0.222

CLN5 (UniProt O75503)
inactive: saracatinib -0.283 | sotrastaurin -0.008 | Tubastatin A 0.079 | [1] 0.032 | [2] -0.715

CIR1 (UniProt Q86X95)
inactive: saracatinib -0.02 | sotrastaurin -0.039 | Tubastatin A 0.078 | [1] -0.061 | defactinib 0.418 | rucaparib 0.102 | [2] 0.057 | encorafenib 0.04 | [3] 0.207

CLPTM1L (UniProt Q96KA5)
inactive: saracatinib 0.11 | sotrastaurin -0.013 | Tubastatin A -0.008 | [1] -0.057 | defactinib -0.042 | rucaparib -0.011 | [2] -0.099 | encorafenib 0.021 | [3] 0.043
